Measurements reported in the supplement of paper PMC12823440, “Inhibitors supercharge kinase turnover through native proteolytic circuits” (Nature, 2025).
Structures can show the parent of a compound that is named as a salt. The list shows a part of the results. The calls rarely recur for the same compound in another form.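 Kinases were expressed as nanoluciferase fusions in K562 cells and luminescence was read every 4 h between 2 and 18 h as percent of control, DMSO set to 100% and a positive control to 0%. A time point counts as decreased when the signal drops significantly (2 sigma). The hit call is the authors' own, does not follow from the count of time points alone, and its rule is not shown.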

Protein sequences, listed by entry. Tags and fused reporters are not part of them. Lines headed by an entry give the natural chain unless they say otherwise; changes in a name come on top.
UniProt P50613: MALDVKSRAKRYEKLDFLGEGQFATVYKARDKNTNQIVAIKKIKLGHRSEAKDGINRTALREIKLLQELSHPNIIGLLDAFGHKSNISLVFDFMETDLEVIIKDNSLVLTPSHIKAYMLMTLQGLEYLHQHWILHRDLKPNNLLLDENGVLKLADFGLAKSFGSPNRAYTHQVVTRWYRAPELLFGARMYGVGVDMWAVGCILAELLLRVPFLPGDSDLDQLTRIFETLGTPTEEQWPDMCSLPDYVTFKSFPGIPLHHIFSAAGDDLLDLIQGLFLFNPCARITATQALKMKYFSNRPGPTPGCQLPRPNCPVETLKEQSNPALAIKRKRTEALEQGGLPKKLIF

What follows are compounds tested against CDK7 (UniProt P50613) (assay: number of time points (of 4; 2 h point missing) at which kinase-Nluc abundance scored as decreased, DMSO-normalised (count); higher = more persistent destabilization). Settings: K562; 2-18 h.

SMILES	number of time points
Cc1ccc(Nc2cc(N[C@@H]3CCCC[C@@H]3N)nnc2C(N)=O)nc1C (2 µM)	0
NC(=O)c1sc2c([N+](=O)[O-])cc(C(F)(F)F)cc2[n+]1[O-] [Cyclapolin 9] (10 µM)	0
O=C(C#Cc1ccccc1)c1cccc([N+](=O)[O-])c1 (10 µM)	0
NC(=O)c1ccccc1Nc1ccnc(Nc2cccc(O)c2)n1 (10 µM)	3
Cc1cncc2cccc(S(=O)(=O)N3CCCNC[C@@H]3C)c12 [H-1152 (dihydrochloride)] (10 µM)	0
C=CC(=O)Nc1cccc(Oc2nc(Nc3ccc(N4CCN(C)CC4)cc3OC)ncc2Cl)c1 (10 µM)	0
Cc1n[nH]c2ncc(C(=O)N3CCC[C@H]3c3ccc(Cl)cc3)cc12 (10 µM)	0
N#Cc1cnc(Nc2cc(NC[C@H]3CNCCO3)c(C(F)(F)F)cn2)cn1 (10 µM)	1
Cc1ncc(-c2cc(F)c(O)c(F)c2)cc1-c1cc(F)c(O)c(F)c1 (10 µM)	0
N#Cc1cc(N2CCC(C(=O)N3N=CC[C@H]3c3cc(F)cc(F)c3)CC2)ncn1 (10 µM)	0
C[C@H](Nc1cc2c(-c3ccc4c(c3)OCO4)noc2cn1)c1ccccc1 (10 µM)	0
CCOC(=O)c1c(N2CCc3ccc(OC)cc3C2)oc(C=C2C=Nc3ncccc32)c1O (10 µM)	1
CC(C)n1cnc2c(Nc3cccc(Cl)c3)nc(N[C@H]3CCCC[C@@H]3N)nc21 (2.5 µM)	0
Nc1ccc(Sc2nc3ccccc3s2)c(Cl)c1 [KRAS inhibitor-9] (10 µM)	0
COc1cc2c(cc1OC)[C@@H]1C(=O)c3ccc4c(c3O[C@@H]1CO2)C=CC(C)(C)O4 [Deguelin] (10 µM)	0
Cn1cc(-c2nc(N[C@@H]3CCCC[C@@H]3N)c(F)c3c2C(=O)NC3)cn1 [TAK-659 (hydrochloride)] (2 µM)	0
CCOC(=O)c1c(Nc2ccccc2Cl)oc(/C=C2\C=Nc3ncccc32)c1O (10 µM)	0
NC(=O)c1c(NC(=O)C2CC2)sc2c1CCCC2 (10 µM)	0
CN1CCC(Nc2nc(Nc3ccc(Oc4ccccc4)cc3)c3c(=O)[nH]cc(Br)c3n2)CC1 (2.5 µM)	0

Retrieved by compound from the entries so far, 3 records:
SMILES	number of time points
Cc1ccc(Nc2cc(N[C@@H]3CCCC[C@@H]3N)nnc2C(N)=O)nc1C (2 µM)	0
O=C(C#Cc1ccccc1)c1cccc([N+](=O)[O-])c1 (10 µM)	0
Nc1ccc(Sc2nc3ccccc3s2)c(Cl)c1 [KRAS inhibitor-9] (10 µM)	0

Additional records.

SMILES	number of time points
N#CC(=C(/N)Sc1ccccc1N)/C(C#N)=C(\N)Sc1ccccc1N (10 µM)	0
CC(C)n1c(CO)nc2c(F)cc(-c3nc(Nc4ccc(CN5CCNCC5)cn4)ncc3F)cc21 (10 µM)	2
O=C(Nc1ccc(F)cc1F)C(NC(=S)Nc1cc(C(F)(F)F)cc(C(F)(F)F)c1)c1ccccc1 (racemic) (2.5 µM)	0
COCCNc1cc(NC(=O)N2CCCc3cc(CN4CCOCC4=O)c(C=O)nc32)ncc1C#N (10 µM)	0
CC/C(=C(\c1ccccc1)c1ccc(OCCNC)cc1)c1ccccc1 [N-Desmethyltamoxifen (hydrochloride)] (2.5 µM)	0
C[C@@H]1CN(Cc2ccc(F)cc2)[C@@H](C)CN1C(=O)c1cc2c(C(=O)C(=O)N(C)C)cn(C)c2cc1Cl [Talmapimod] (10 µM)	0
Nc1nccc(Oc2ccc3c(C(=O)Nc4cccc(C(F)(F)F)c4)cccc3c2)n1 (10 µM)	3
COc1c(Nc2ncc(Cl)c(N[C@H]3[C@@H](C(N)=O)[C@@H]4C=C[C@H]3C4)n2)ccc2c1CC[C@@H](N1CCOCC1)CC2 (10 µM)	0
CNCc1ccccc1Sc1cccc2ccccc12 [IFN alpha-IFNAR-IN-1 (hydrochloride)] (10 µM)	2
COc1cccc(-c2cc(=O)c3ccccc3o2)c1N (10 µM)	0
Nc1ccc(-c2nc3ccc(-c4nc5ccc(N)cc5[nH]4)cc3[nH]2)cc1 (10 µM)	0
Cc1ccc(C2CC(=O)NC(SCC(=O)Nc3nccs3)=C2C#N)cc1 (stereo not drawn) [Necrostatin-34] (10 µM)	0
CC(C)Cn1ncc2cc(Oc3ccc(F)cc3F)c(C(=O)NCCN(C)C)cc21 [p38α inhibitor 1] (10 µM)	0
O=C(NC[C@H](O)CO)c1ccncc1Nc1ccc(I)cc1F [Pimasertib] (10 µM)	1
CN1C(=O)N[C@@H](Cc2c[nH]c3c(Cl)cccc23)C1=O [Necrostatin 2 (S enantiomer)] (10 µM)	0
Cc1cc2c(F)c(Oc3ncnn4cc(OC[C@@H](C)OC(=O)[C@H](C)N)c(C)c34)ccc2[nH]1 [Brivanib (alaninate)] (10 µM)	0
C=CC(=O)Nc1cc(Nc2nccc(-c3cn(C)c4ccccc34)n2)c(OCC(F)(F)F)nc1N(C)CCNC [AST5902  (trimesylate)] (2.5 µM)	0
COc1cc2nccc(Nc3cccc(Oc4ccccc4)c3)c2cc1OC (2.5 µM)	0
CC(C)(Oc1ccc(Cl)cc1)C(=O)Nc1ccc(OCc2ccc(C#N)cc2)cc1 [AMPK activator 4] (10 µM)	0
